These are yes or no findings as the source states them, for the method shown. In cells and extracts the contact can be indirect. Some results given as binding are weak or reduced against the parent protein; the word gives no strength.

By UniProt entry, the sequences of proteins in these tests, tags left out. Where a name states a change or a piece, a line headed by the entry shows the natural chain unless it says otherwise.
UniProt P35637: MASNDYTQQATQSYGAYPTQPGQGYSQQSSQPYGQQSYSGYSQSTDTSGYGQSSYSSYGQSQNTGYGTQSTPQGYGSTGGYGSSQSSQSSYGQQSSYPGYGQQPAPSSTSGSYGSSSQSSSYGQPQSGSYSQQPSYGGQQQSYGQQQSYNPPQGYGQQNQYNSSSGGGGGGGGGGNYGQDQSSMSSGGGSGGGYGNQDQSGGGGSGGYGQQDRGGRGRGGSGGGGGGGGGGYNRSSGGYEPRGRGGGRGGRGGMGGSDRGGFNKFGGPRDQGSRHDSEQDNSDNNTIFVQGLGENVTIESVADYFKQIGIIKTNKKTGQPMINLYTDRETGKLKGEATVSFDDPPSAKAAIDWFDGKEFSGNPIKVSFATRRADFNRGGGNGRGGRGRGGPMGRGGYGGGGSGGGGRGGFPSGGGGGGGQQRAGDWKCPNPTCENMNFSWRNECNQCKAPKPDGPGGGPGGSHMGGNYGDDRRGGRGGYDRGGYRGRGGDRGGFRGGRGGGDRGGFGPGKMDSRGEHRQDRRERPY
UniProt P28340: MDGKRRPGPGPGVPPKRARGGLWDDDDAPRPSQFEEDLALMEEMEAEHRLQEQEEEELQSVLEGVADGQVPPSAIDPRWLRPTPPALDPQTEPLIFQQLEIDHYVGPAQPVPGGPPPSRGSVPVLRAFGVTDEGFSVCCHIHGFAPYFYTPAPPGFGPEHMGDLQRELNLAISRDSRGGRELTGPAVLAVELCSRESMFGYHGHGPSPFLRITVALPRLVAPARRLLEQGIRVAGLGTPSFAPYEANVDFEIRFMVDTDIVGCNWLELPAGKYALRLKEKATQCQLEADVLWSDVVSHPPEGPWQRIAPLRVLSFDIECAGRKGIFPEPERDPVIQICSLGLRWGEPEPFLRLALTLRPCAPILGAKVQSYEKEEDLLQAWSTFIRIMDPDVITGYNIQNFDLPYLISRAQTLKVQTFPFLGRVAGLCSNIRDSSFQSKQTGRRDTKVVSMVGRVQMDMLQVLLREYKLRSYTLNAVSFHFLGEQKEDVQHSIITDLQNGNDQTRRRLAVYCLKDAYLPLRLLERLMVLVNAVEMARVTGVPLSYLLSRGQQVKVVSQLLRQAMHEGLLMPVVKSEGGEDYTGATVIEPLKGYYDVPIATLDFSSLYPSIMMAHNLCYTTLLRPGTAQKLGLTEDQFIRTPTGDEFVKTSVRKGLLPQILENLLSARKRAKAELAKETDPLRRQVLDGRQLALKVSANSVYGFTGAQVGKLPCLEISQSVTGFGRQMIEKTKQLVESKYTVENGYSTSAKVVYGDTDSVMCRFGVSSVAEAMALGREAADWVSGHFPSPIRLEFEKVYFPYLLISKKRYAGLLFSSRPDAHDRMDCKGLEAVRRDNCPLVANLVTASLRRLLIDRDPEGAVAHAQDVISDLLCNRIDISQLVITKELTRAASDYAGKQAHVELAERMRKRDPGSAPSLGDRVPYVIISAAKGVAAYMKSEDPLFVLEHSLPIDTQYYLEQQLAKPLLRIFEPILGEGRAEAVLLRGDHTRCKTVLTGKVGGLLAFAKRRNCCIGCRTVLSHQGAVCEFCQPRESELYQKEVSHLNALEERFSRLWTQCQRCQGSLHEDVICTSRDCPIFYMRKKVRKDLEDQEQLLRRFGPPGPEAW
UniProt P12004: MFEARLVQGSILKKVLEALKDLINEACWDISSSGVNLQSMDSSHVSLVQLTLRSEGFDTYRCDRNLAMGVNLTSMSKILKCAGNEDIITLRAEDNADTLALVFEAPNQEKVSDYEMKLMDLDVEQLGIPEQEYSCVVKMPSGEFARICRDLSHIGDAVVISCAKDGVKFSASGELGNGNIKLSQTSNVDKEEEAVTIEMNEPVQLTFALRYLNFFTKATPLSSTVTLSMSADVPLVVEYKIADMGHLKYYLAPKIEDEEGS
UniProt P11387: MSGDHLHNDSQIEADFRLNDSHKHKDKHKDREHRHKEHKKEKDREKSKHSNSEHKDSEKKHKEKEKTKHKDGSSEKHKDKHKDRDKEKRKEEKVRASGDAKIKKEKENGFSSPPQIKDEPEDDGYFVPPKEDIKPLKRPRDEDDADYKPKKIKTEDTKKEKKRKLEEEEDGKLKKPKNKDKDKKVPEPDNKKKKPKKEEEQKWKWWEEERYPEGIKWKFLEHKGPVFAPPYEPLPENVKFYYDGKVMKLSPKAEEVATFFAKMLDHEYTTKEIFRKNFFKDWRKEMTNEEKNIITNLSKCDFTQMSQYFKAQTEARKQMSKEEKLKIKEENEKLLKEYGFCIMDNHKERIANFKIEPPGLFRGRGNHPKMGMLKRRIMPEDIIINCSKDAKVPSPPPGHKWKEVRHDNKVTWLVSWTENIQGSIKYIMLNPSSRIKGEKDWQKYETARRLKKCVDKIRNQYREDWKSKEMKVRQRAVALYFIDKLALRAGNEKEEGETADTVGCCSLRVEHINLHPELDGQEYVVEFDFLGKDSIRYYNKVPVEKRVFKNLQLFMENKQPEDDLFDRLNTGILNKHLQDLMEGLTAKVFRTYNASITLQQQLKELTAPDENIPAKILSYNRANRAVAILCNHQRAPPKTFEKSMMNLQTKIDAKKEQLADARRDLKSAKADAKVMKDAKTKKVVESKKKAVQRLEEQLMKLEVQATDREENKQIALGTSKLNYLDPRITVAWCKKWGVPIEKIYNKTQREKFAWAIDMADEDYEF

Binding data for four molecules are collected here from paper doi:10.1101/2020.04.22.055343.

Assay [1] concerns the target Fused in sarcoma (FUS) (human (endogenous in U-2 OS)) (UniProt P35637). The experiment in a line: proximity ligation.
The target is the same in assay [2]. The experiment in a line: co-IP.
For assay [3] the target is unchanged. Description: co-IP. This is another data set of the same source.

In the case of “DNA polymerase δ (POLδ or POLD1) (from UniProt P28340 1-1107)”, the binding result in assay [1] and in assay [2] was “binds” throughout.

PCNA (from UniProt P12004 1-261): the binding entry in assay [1] and in assay [2] was “binds” each time.

For the molecule TOP1 (from UniProt P11387 1-765), the binding entry in assay [2] was “binds”.

B1: UHRF1 (protein, UniProt Q96T88 1-793)
chain: MWIQVRTMDGRQTHTVDSLSRLTKVEELRRKIQELFHVEPGLQRLFYRGKQMEDGHTLFDYEVRLNDTIQLLVRQSLVLPHSTKERDSELSDTDSGCCLGQSESDKSSTHGEAAAETDSRPADEDMWDETELGLYKVNEYVDARDTNMGAWFEAQVVRVTRKAPSRDEPCSSTSRPALEEDVIYHVKYDDYPENGVVQMNSRDVRARARTIIKWQDLEVGQVVMLNYNPDNPKERGFWYDAEISRKRETRTARELYANVVLGDDSLNDCRIIFVDEVFKIERPGEGSPMVDNPMRRKSGPSCKHCKDDVNRLCRVCACHLCGGRQDPDKQLMCDECDMAFHIYCLDPPLSSVPSEDEWYCPECRNDASEVVLAGERLRESKKKAKMASATSSSQRDWGKGMACVGRTKECTIVPSNHYGPIPGIPVGTMWRFRVQVSESGVHRPHVAGIHGRSNDGAYSLVLAGGYEDDVDHGNFFTYTGSGGRDLSGNKRTAEQSCDQKLTNTNRALALNCFAPINDQEGAEAKDWRSGKPVRVVRNVKGGKNSKYAPAEGNRYDGIYKVVKYWPEKGKSGFLVWRYLLRRDDDEPGPWTKEGKDRIKKLGLTMQYPEGYLEALANREREKENSKREEEEQQEGGFASPRTGKGKWKRKSAGGGPSRAGSPRRTSKKTKVEPYSLTAQQSSLIREDKSNAKLWNEVLASLKDRPASGSPFQLFLSKVEETFQCICCQELVFRPITTVCQHNVCKDCLDRSFRAQVFSCPACRYDLGRSYAMQVNQPLQTVLNQLFPGYGNGR
Turning to B1, the binding entry in assay [3] is listed as “binds”.
